No constants are given. Whether binding was seen depends on the method and setting. Binding seen in cells or lysates may run through a third protein. A yes stands for co-enrichment or nearness to the bait. Other partners may have been found. A no says only that the protein was not detected with the bait. Where a sequence is shown, tags or fusion partners need not be part of it.

This passage reports binding results from PMC3061866.

The chains are these.
B1: Fta3 (protein, UniProt O94261 1-220)
chain: MDNNDQISNLCLGALQLLADQPISVISNEPSEEQRNEHVLKKWENNVLRHWKILFSLFMQTCGDSVQGNAAFSILNFMTTNSLVGQLYQRLYDESNSLGFISSPLNETEHLSEENLKIESSITFTSEEIEKEKENIKSVLLPSVQSISSSLELYASKESDYRSSIEGVLADLKLARARWEIVRNVTQILLLESGISFLENKKLAYIMDLCGDREDNYSSY
B2: Fta6 (protein, UniProt Q9UTP3 1-59)
chain: MEDKYILLSAVETFKSRLEELLMQSAKVQKQTMLRKELASSMNDMASTVQEALNKKKSS
B3: Spc7 (protein, UniProt O59757 1-1364)
chain: MPTSPRRNSIATTDNVIGRNKSRKRPHSLGGPGALQELKEHTNPAKGILKSYSSFSVDPAFTGDEDFNDIHTQINNTVIGISSNVMAASKRLQMEDLQQLSRETSRKSLNRRVSFASHARVRWYPKDHQSDSEKSTSNHSTPERTFASDAKNHSPKGPTTTSFSRNETQSSPHSHSASIISDGSDMDIASPIRSTESDMVSEALNAGHPPPSLYPENDDLSIQNPTKALPEAEKALDVHDATREQVNDREETNMDLTIQFQEADSFLSHSESIKGLSSSEQGTVYSLKASHDPSNQTQLSSPNKSSSPTSIEISDFSKNNENHDQSENKEEEEDMMLTRPIEIPQHFSPIARPLTSQEAIVDMDITSNNINLSPVSHFSNGLDLQNLEEAPMNLTRPINANPHLTNHSPNDLTNGEEEMDTTSAFNIENSHLTLLSPIRPSSRSMEEQIMDLTQPISSTNAPTHLNEDDLNQFTSNISSSSKPRKDNNKTANSSKPIPDSEDFMDITRPFNILSPSKEALSEEQPMELTSTVFPCENSTSHLEVEEAAMDETVAFQIRGNNVELPSADKENAEREEIPSYSDKSENFNTTSFTNHERSPNGNNNLKFSKDPNSSSPSRHVVATPTDKLGTRKRRLRYSTSSFDQSTLRRNRLATIRNARKSISTLNDRELLPVNFFEKKVNSGLYKSVERSENYRLGATPLTAEKPFTTEKPLSSLPEEVSRQPTDDKGEQVSNADVDSGLSKTERLTIQQTNEIKHVPTNTTSSVKLPQQPSNEDEKERITTADYADSTSLERLESQEPNRNELVQVGSSNAGNTTSVGMNEHEKSPVKLSKGVSNVDTSLGASTINTNILNQDSGPNEEIPVGNEPEFDTMPTLPNVEPISLSDFLKMTGIEFLDNLTIAKRRETLLPNAEENKKCSIQELLESFYIQFPLLELYKFSCQQLQDYIAEGKDFVTKIEEETLKENPLLFYEYRKASSDMRVLMDSQFLMMKTFARLQAKGDWYEWREGLMQGIKHELNLNLTGMQRSLTHLMDVANVIHPYAQEIQERYNGSITTVQTLKKQKEFANQYDSTLLAQAQEKLEKLKVEVERRRRLLSEKEERRKELAIKIEQVTNSCSDLELRTNAEQDFYAKNQDFEFDEIKRYEEQLLNLKNELGWTIVSLTAGGIKLATNNTALSPYSAEVTVEILRQNFQVNVDIACKFPNESNACSSNVLEHVASSFSKWHSKVFSRNLRLLKKYLNDVSICWEQIVYLVQDFQRLWYHWPFLSVENDDKSIIINVELYLRSVSSKVKVVFGLPIDTIYQTTEVGKFYASTSVAVKQMYAESEGDSYVSEVLNTLSEVVHCTSTYALSSACLTVWNKYS
B4: Fta2 (protein, UniProt Q9US26 1-351)
chain: MSGRRYSQISQQEGSSSSDDSDSQQKKTKRTVAHRSPNTTLNGMPRVDSRARPNENSGQSKSSNGRVDTDRKMDLLRKRSNLVHQTLLLEKEVRVRRNAINQRDDSFLSGFIKSLLEIDSSVVIYNTENPDNPKTKQVMPSAEPKKHVKLNSSISSIRFTQHEFEAESEKIIHHSLKGDIEYLPSFKFLLEIKVRTIDYALLFITYKIPHFARKELSSFSDSAIQCLDIVALLRAFSLFAHHYSYRCNTWFYLSKHMKKVASANMDAQCFYVQNSFYKITILYEIKFDDLGFVQPNYCISYILKNQNEKIVSITSKLLNQLDKRFSEFVSLFGFREGSLLLLQALFKPHLG
B5: Prp19 (protein, UniProt O14011 1-488)
chain: MFCSISGETPKEPVISRVSGNVYEKRLIEQVIRETSKDPVTQQECTLEDLVPVKVPDFVRPRPPSATSLPALLSLFQEEWDSVALEQFELRRNLTETKQELSTALYSLDAALRVISRLTKERDEAREALAKFSDNIGTVSSKTIEVQEVEMGESDDQLKTSLRSTVEKTFQELSSKRKRTKLQPKWATDDAVSQLLQATPSTILENLETESTTSFFPSPENSSFVLCLHKDELLCLDIQSNSTLKIFEGSALACCWLTSSKIAVATADAISIFEFPVSSSGLQSVGEPTSSIPIDEKVNFLQAHPSGEYLLAASNEKCYIFSLKSQVYNITVAQHITSLAVHPDGNLFVAGLENGELRFFETSSGNELTKFGPHSSPVKTLQFGENGYWLVVTTNDDSDIFIWDLRKSELVQKIPLQTKVAAVSLDITSQLLVSSDGETLYVHIYVKSSKSWRCMSQTHVSSISNLVWLNELHQLLFSTSNGAILRLG
B6: Ndc80 (protein, UniProt Q10198 1-624)
chain: MQDSSSYARRYSQAPSSSNLRTTTFGFNGLGTSRTSLAPQRTLVNARQSIDPDGLSSRVLTPTMRPSLAPNTRRSSVRVSNASFISQTPNITSIKDPRPLSDRRYQQECATQVVNYLLESGFSQPLGLNNRFMPSTREFAAIFKHLYNKLDPNFRFGARYEEDVTTCLKALNYPFLDSISRSRLVAIGSPHVWPAILGMLHWVVSLIQCTEKAVAMVYTVEQNSLDDHLVDKVLFDYLVRTYHLYLDESPEESEPEKELKATFNQQNQDLYNQTEALKSTNEELINQIKSAEELDSAIQVLEERYRTMQRDEVKFQSAMSGMKSKMESRTNLMKQLQVNIEEKESQLQLLKEKRDSLKYQVENQDISISEFEKMVSEREQLDRNLNMIGSKISELRKEVFDTDLLIQASIDSLEKKVQKFNSLAYRIGIVPIAAIRSANNDFELEINPEGPNYINLDLKNKVRPFINEVRRSITLEFHEEQNKSLKLQEHVDTVNDLIAELQDELRGIESRLTSVLSECNMLRETASEEKNAFDAESDKLERELQQLKLSSHNSMLQLDQRIQSINIEADQIAHACMEYKNNIYKEVAFVLGEIIHFKLHVQDSLEDLKMDYQKELDDLSRSEL
B7: Fta4 (protein, UniProt O94716 1-233)
chain: MDIYEHKKSFMERQIRLLNRPMRPPKDWKLPLKSGQLSESVVETVFQRLQLRIQKHAKLNYSHQATQHVAAQIRKLYEQNSAIEDITFLNPLFYGEIDLSNLDSVKSLPHPWPFQKESRPVEKDEEQEKFNRLTGELLGLLTTLSELEQERSELEQIEKMLEPFEDGPSSIHTNMWKKNPELISTLNSTNTMVAKINSLLRGVSFPSLNNDNQEASLEDEIRSQLFEKTISDD

The target in one assay is T1, Mis17-FLAG (S. pombe) (UniProt O94643).
T1 sequence: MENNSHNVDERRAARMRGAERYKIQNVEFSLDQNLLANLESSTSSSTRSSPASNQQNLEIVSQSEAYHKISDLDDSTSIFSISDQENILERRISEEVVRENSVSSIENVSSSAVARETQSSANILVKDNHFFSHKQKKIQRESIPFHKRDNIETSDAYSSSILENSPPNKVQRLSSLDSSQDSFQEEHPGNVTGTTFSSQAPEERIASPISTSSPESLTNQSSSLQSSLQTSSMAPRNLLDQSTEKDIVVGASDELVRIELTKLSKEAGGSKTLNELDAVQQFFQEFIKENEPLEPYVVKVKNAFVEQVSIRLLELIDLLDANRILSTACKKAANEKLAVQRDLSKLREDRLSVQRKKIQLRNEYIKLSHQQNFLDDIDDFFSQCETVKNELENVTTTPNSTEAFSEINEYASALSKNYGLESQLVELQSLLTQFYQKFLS
The assay can be described thus: affinity purification with mass spectrometry; anti-FLAG immunoprecipitation from extracts of S. pombe strains expressing Mis17-, Mis6- or Mis12-FLAG under the native promoter; extraction buffer 25 mM HEPES-KOH pH 7.5, 200 mM NaCl, 10% glycerol, 0.1% NP-40, 1 mM PMSF; 4-12% SDS-PAGE, gel slices, in-gel trypsin digestion, LC/MS/MS.
On to B1, for which the binding entry is reported as “binds”.
Same read-out and setting: in the case of B2 it was “binds”; in that of B3, “no binding”.
As to B4, the binding entry is “binds”.
B5: the binding entry is on record as “binds”.
The same measure, in the same setting: in the case of B6 it was “no binding”; in that of B7, “binds”.

The target of a further assay is T2, Mis6-FLAG (S. pombe) (UniProt P87227).
T2 sequence: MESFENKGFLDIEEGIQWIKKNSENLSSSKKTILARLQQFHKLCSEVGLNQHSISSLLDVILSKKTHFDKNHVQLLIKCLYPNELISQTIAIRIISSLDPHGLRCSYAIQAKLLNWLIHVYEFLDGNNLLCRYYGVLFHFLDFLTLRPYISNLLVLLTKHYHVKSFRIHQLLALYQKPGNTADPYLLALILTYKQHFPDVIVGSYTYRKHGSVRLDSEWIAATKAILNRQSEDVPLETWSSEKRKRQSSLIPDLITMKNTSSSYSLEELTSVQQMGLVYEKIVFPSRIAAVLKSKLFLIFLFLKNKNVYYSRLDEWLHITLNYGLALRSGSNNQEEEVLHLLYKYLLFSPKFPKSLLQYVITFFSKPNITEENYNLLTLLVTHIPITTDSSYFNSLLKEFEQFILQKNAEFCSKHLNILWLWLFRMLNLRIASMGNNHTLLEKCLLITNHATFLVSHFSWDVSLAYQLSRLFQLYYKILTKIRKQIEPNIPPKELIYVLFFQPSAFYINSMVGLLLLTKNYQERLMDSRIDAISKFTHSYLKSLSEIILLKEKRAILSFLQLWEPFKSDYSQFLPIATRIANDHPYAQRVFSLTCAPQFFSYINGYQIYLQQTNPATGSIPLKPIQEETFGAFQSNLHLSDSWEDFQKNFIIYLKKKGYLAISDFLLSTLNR
The assay is described as above.
For the molecule B1, the binding result is given as “binds”.
As for B2, the binding result is “binds”.
On to B3, for which the binding entry is listed as “no binding”.
On the same count and under the same terms, in the case of B4 it was “binds”; in that of B5, “binds”; in that of B6, “no binding”.
As for B7, the binding entry is on record as “binds”.

The next assay deals with T3, Mis12-FLAG (S. pombe) (UniProt Q9Y738).
T3 sequence: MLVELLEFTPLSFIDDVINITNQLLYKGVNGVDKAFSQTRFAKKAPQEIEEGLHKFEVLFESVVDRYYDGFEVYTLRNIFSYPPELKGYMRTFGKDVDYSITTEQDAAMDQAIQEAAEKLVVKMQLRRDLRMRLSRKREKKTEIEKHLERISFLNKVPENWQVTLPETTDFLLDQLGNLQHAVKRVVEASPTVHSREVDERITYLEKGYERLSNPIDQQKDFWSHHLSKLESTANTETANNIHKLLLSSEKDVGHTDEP
Described as above.
For the molecule B1, the binding result is “no binding”.
Same read-out and setting: the result for B2 reads “no binding”.
Still for that read-out and setting: in the case of B3 it was “binds”.
Still for that read-out and setting: the result for B4 reads “no binding”.
On to B5, for which the binding result is recorded as “no binding”.
The same measure, in the same setting: the result for B6 reads “binds”.
The same measure, in the same setting: in the case of B7 it was “no binding”.
